Reference: the supplement of paper PMC10849652
Some of the results follow.

Amino acid sequences for entries named in this document (tags omitted). A change or cut given only in a name is not applied to a line headed by its entry.
UniProt P53007, whole entry, looked up: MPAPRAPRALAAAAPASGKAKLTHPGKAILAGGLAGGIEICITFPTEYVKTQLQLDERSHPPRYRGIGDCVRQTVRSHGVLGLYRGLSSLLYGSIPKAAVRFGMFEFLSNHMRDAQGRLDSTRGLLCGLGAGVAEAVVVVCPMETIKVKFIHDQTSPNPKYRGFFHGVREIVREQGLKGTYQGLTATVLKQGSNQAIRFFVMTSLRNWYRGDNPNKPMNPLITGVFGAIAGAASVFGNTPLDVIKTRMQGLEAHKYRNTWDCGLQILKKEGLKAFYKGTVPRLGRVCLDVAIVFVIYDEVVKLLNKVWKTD
UniProt Q8TB61: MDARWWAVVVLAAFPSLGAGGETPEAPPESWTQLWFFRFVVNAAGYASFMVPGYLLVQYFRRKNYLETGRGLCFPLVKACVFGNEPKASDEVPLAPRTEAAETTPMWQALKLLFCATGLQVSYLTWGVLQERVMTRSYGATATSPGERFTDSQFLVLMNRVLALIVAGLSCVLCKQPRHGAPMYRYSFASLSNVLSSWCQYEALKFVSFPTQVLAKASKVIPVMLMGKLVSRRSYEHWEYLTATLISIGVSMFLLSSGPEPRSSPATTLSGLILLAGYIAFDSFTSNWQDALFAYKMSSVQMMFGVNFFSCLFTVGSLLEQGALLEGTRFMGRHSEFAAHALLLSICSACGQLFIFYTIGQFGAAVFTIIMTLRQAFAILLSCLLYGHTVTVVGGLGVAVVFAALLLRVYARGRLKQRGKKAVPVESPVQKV
UniProt Q6P1K1: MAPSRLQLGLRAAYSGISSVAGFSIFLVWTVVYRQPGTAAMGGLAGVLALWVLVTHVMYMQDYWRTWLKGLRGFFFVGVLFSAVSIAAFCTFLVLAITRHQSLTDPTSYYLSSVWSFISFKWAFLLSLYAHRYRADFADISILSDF
UniProt Q9BWU0: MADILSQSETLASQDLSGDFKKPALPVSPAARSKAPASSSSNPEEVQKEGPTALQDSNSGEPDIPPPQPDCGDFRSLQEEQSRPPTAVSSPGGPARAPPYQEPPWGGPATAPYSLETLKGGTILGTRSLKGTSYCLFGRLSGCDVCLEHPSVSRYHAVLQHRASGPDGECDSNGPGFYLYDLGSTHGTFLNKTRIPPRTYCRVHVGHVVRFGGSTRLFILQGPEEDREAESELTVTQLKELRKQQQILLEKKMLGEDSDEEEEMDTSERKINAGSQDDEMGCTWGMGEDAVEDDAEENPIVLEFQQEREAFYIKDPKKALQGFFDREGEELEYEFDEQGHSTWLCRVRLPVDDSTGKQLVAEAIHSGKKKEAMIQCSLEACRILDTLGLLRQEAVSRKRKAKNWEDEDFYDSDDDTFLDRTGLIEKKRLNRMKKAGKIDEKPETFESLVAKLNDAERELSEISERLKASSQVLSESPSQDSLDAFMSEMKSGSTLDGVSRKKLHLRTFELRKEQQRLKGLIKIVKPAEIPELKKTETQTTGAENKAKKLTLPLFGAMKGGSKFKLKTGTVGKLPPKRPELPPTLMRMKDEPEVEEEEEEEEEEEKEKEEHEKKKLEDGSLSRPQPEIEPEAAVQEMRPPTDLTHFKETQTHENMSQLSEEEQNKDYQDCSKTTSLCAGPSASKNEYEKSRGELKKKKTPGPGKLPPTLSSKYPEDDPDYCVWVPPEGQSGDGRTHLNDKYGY
UniProt Q92504: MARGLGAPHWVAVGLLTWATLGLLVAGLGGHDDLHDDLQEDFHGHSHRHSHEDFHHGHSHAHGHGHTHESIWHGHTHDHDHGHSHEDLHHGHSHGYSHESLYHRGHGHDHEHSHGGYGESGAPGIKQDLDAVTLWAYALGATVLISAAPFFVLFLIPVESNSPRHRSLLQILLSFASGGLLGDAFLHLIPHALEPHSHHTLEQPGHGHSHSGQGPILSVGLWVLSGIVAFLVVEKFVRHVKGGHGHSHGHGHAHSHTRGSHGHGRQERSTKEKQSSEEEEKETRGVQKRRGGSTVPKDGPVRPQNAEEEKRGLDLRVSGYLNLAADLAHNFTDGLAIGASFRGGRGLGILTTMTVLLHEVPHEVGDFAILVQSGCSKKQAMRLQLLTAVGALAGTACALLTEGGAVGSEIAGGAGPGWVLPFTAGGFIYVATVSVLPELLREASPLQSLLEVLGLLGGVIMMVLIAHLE
UniProt Q9H936: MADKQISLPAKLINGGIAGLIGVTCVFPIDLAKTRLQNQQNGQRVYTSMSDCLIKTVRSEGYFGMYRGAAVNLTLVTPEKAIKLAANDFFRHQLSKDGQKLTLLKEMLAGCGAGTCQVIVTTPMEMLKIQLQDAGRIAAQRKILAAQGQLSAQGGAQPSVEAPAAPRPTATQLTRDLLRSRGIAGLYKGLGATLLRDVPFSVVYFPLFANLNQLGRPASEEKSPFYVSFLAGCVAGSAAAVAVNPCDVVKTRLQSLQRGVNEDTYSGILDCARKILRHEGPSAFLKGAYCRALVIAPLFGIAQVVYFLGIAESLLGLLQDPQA
UniProt O95258: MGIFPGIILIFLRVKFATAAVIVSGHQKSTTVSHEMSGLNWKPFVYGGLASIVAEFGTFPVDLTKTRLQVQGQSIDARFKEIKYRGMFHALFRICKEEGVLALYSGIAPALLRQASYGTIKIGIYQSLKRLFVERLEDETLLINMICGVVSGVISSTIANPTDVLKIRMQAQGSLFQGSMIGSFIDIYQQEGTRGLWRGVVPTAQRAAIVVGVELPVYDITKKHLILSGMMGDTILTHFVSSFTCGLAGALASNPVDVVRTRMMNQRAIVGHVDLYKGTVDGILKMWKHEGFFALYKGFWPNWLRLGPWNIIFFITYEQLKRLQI
UniProt Q96DW6: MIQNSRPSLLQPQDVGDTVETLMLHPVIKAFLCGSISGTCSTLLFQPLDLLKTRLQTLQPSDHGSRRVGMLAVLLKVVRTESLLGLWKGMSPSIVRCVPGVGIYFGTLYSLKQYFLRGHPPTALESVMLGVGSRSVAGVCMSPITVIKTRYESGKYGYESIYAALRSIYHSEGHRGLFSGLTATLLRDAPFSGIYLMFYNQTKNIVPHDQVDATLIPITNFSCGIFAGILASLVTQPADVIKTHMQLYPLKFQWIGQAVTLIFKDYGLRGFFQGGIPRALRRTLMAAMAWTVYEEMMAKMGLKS
UniProt Q9HAB3: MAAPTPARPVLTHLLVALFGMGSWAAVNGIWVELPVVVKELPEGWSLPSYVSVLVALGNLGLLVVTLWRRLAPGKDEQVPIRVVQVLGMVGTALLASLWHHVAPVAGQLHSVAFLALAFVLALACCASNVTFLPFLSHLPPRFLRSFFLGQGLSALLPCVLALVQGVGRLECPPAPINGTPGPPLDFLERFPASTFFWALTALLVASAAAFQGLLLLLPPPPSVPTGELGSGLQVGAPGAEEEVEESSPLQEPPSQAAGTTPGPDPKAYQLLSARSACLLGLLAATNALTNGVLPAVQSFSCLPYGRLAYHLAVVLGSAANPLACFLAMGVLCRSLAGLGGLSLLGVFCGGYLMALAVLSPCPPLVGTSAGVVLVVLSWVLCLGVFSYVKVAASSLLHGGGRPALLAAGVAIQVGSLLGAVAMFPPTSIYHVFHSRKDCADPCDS
UniProt Q92536: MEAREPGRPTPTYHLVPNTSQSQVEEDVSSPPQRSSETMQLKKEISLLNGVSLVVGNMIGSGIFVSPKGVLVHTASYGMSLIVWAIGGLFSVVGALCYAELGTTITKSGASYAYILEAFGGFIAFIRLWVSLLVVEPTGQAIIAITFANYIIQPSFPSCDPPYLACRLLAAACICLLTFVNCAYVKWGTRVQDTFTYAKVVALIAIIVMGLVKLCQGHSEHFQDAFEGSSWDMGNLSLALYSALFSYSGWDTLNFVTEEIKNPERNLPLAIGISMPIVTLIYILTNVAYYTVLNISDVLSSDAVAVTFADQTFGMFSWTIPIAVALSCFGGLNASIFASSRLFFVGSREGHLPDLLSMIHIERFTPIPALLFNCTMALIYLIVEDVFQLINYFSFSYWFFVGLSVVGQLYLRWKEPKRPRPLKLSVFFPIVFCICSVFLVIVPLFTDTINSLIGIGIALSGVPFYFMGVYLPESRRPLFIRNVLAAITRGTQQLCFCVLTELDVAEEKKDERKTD
UniProt P50443: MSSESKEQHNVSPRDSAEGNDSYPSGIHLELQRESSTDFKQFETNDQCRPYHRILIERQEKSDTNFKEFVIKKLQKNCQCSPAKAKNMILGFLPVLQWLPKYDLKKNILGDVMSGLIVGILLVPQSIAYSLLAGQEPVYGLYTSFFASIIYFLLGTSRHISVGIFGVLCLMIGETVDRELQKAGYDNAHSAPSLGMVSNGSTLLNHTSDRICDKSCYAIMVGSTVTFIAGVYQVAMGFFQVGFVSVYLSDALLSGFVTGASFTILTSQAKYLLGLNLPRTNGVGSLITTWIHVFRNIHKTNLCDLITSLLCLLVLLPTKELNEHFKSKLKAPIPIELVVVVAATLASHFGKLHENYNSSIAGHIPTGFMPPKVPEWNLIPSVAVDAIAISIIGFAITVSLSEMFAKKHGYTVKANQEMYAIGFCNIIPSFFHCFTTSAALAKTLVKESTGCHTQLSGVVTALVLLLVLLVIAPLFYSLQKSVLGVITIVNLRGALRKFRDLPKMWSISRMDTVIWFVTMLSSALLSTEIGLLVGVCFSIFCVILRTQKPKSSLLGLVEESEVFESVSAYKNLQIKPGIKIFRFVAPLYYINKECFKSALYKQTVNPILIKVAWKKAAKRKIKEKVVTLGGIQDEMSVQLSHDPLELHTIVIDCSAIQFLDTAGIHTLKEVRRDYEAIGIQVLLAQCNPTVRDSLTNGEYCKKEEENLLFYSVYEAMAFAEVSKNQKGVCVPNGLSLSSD
UniProt P51531, whole entry, looked up: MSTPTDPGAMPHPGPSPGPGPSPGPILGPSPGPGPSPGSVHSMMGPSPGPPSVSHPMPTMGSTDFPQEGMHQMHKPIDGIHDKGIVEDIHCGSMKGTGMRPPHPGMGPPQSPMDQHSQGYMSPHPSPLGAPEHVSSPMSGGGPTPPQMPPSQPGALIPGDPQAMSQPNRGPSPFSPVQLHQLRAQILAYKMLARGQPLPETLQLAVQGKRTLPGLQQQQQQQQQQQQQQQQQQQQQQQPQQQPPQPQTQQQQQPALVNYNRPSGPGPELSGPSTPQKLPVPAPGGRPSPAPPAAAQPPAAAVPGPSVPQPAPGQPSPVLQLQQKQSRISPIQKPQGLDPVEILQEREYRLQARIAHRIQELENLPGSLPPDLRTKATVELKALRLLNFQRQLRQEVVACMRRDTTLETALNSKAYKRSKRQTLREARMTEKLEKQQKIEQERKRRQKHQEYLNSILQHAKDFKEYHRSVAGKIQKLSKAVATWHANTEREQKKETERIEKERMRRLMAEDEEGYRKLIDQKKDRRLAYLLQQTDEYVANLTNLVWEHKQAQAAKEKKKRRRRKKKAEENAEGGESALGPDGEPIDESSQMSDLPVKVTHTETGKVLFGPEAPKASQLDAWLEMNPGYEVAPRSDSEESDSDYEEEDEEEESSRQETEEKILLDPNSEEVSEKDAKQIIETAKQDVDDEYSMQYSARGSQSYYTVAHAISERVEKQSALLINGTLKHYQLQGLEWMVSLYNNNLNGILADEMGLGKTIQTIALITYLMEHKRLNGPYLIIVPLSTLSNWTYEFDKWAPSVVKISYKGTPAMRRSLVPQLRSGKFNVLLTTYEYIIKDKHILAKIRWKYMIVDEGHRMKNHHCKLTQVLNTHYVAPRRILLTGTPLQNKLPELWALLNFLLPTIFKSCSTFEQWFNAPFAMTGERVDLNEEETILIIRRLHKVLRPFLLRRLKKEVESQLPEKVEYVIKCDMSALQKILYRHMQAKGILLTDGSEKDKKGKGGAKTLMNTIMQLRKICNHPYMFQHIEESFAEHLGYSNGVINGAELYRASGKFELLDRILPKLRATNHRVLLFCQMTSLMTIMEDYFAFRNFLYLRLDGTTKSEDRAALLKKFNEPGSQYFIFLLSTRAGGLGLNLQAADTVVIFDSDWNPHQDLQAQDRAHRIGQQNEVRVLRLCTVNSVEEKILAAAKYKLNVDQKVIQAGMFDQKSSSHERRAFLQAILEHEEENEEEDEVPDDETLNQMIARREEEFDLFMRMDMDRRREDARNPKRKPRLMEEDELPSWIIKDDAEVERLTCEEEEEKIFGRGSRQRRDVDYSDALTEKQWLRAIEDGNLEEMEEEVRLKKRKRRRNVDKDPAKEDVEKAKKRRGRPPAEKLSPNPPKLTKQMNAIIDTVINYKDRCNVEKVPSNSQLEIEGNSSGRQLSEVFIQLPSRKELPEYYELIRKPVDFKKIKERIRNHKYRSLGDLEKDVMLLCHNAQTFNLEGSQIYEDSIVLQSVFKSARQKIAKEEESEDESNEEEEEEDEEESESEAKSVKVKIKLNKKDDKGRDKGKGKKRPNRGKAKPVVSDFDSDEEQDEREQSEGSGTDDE
UniProt L0R6Q1: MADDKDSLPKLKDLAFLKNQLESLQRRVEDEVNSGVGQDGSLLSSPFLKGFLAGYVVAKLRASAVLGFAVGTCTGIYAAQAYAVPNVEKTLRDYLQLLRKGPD

Experiments:
Experiment in all cases: log2 fold change, soluble protein after heating vs DMSO (PISA); higher = thermal stabilisation; K562 lysate, 10 uM; active = over 0.2 and 3.5 SD of the protein, either way, in both replicates (recomputed)
erlotinib = compound: C#Cc1cccc(Nc2ncnc3cc(OCCOC)c(OCCOC)cc23)c1 [erlotinib]
Procedure, shortened: (§1)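 K562 pellets were dounce-homogenised in PBS pH 7.4 with 1 mM MgCl2, and the crude extract at 1 mg/mL protein was treated with 10 μM compound for 30 min. Aliquots were heated for 3 min across 48°C-58°C, pooled, and brought to 0.5% NP-40 at 4°C; soluble protein was the supernatant after 21,000xg for 90 min. Soluble protein was quantified by TMTpro 16plex LC-MS/MS with channel sums equalised, and reported as log2 fold change in thermal stability against DMSO controls, with values from duplicates.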

[1] = compound: C/C(=N\NC(=O)C1=CC(=CC=C1)S(=O)(=O)N2CCOCC2)/C3=C(C=CC(=C3)Cl)O
Procedure, shortened: as §1

[2] = compound: C1=CC(=CC=C1C2=NC3=C(N2)C=C(C=C3)C(=O)N)OC4=CC=C(C=C4)Cl
Procedure, shortened: as §1

[3] = compound: C1=CC2=C(C=CC(=C2)/C=C\3/C(=O)NC(=NCC4=CC=CS4)S3)N=C1
Procedure, shortened: as §1

[4] = compound: C1=CC2=NC=CN=C2C=C1/C=C/3\C(=O)NC(=O)S3
Procedure, shortened: as §1

[5] = compound: C1=CC=C(C=C1)C2=NC(=C(N2)C3=CC=NC=C3)C4=CC(=C(C=C4)Cl)O
Procedure, shortened: as §1

[6] = compound: C1=CC=C2C(=C1)C3=NNC4=CC=CC(=C43)C2=O
Procedure, shortened: as §1

[7] = compound: C1CCN(C1)C(=O)NC2=CC=CC(=C2)NC3=NC=C(C(=N3)NCCC4=CN=CN4)Br
Procedure, shortened: as §1

[8] = compound: C1CN(CCC1(CC2=CC=C(C=C2)Cl)N)C3=NC=NC4=C3C=CN4
Procedure, shortened: as §1

IRAK-1-4 Inhibitor I = compound: C1COCCN1CCN2C3=CC=CC=C3N=C2NC(=O)C4=CC(=CC=C4)[N+](=O)[O-] [IRAK-1-4 Inhibitor I]
Procedure, shortened: as §1

Row | Target | log2 fold change (erlotinib) | log2 fold change [1] | log2 fold change [2] | log2 fold change [3] | log2 fold change [4] | log2 fold change [5] | log2 fold change [6] | log2 fold change [7] | log2 fold change [8] | log2 fold change (IRAK-1-4 Inhibitor I)
1 | SLC36A1 (UniProt Q7Z2H8) | inactive: -0.092 | inactive: -0.17 | inactive: 0.066 | inactive: -0.014 | inactive: 0.093 | inactive: -0.087 | inactive: -0.182 | inactive: -0.19 | inactive: 0.174 | inactive: -0.063
2 | SLC25A26 (UniProt Q70HW3) | inactive: -0.003 | inactive: -0.278 | inactive: -0.028 | inactive: -0.023 | inactive: -0.058 | inactive: 0.09 | inactive: 0.033 | inactive: -0.06 | inactive: 0.067 | inactive: 0.06
3 | SLC25A1 (UniProt P53007) | inactive: 0.053 | inactive: 0.031 | inactive: 0.057 | inactive: 0.037 | inactive: 0 | inactive: 0.033 | inactive: 0.013 | inactive: -0.01 | inactive: -0.01 | inactive: -0.005
4 | SLC35B2 (UniProt Q8TB61) | inactive: 0.009 | inactive: 0.015 | inactive: -0.025 | inactive: -0.018 | inactive: -0.032 | inactive: -0.024 | inactive: -0.035 | inactive: -0.02 | inactive: 0.02 | inactive: 0.046
5 | SLC48A1 (UniProt Q6P1K1) | inactive: -0.109 | inactive: -0.288 | inactive: -0.027 | inactive: -0.019 | inactive: 0.056 | inactive: -0.194 | inactive: 0.154 | inactive: -0.099 | inactive: 0.087 | inactive: 0.023
6 | SLC25A31 (UniProt Q9H0C2) | inactive: 0.008 | inactive: -0.039 | inactive: 0.051 | inactive: -0.027 | inactive: -0.008 | inactive: -0.025 | inactive: -0.006 | inactive: -0.004 | inactive: -0.014 | inactive: 0.051
7 | SLC4A1AP (UniProt Q9BWU0) | inactive: -0.014 | inactive: -0.047 | inactive: 0.013 | inactive: 0.005 | inactive: -0.013 | inactive: -0.001 | inactive: -0.023 | inactive: -0.015 | inactive: 0.002 | inactive: 0.001
8 | SLC39A7 (UniProt Q92504) | inactive: 0.009 | inactive: 0.038 | inactive: 0.043 | inactive: -0.049 | inactive: -0.003 | inactive: -0.043 | inactive: -0.062 | inactive: 0.01 | inactive: 0.003 | inactive: 0.006
9 | SLC25A22 (UniProt Q9H936) | inactive: 0.007 | inactive: 0.021 | inactive: -0.01 | inactive: 0.032 | inactive: 0.013 | inactive: -0.011 | inactive: 0.049 | inactive: 0.012 | inactive: -0.045 | inactive: -0.004
10 | SLC39A3 (UniProt Q9BRY0) | inactive: 0.047 | inactive: 0.045 | inactive: -0.014 | inactive: -0.003 | inactive: 0.014 | inactive: -0.033 | inactive: 0.025 | inactive: 0.023 | inactive: 0.064 | inactive: -0.062
11 | SLC5A3 (UniProt P53794) | inactive: 0.069 | inactive: -0.008 | inactive: 0.013 | inactive: -0.036 | inactive: -0.003 | inactive: 0.025 | inactive: -0.011 | inactive: 0.005 | inactive: -0.026 | inactive: 0.05
12 | SLC25A14 isoform 3 (UniProt O95258) | inactive: -0.001 | inactive: 0.165 | inactive: -0.002 | inactive: 0.043 | inactive: -0.04 | inactive: 0.092 | inactive: 0.117 | inactive: 0.026 | inactive: -0.089 | inactive: 0.032
13 | SLC25A38 (UniProt Q96DW6) | inactive: -0.077 | inactive: -0.117 | inactive: -0.024 | inactive: -0.049 | inactive: -0.086 | inactive: -0.114 | inactive: -0.092 | inactive: -0.023 | inactive: -0.07 | inactive: -0.052
14 | SLC52A2 (UniProt Q9HAB3) | inactive: -0.06 | inactive: -0.262 | inactive: -0.082 | inactive: 0.025 | inactive: 0.023 | inactive: -0.025 | inactive: 0.09 | inactive: -0.046 | inactive: 0.012 | inactive: 0.051
15 | SLC25A40 (UniProt Q8TBP6) | inactive: 0.031 | inactive: 0.021 | inactive: -0.001 | inactive: 0.035 | inactive: -0.026 | inactive: 0 | inactive: -0.107 | inactive: -0.02 | inactive: 0.031 | inactive: 0.022
16 | SLC7A6 (UniProt Q92536) | inactive: 0.085 | inactive: -0.049 | inactive: 0.079 | inactive: -0.073 | inactive: -0.049 | inactive: -0.026 | inactive: 0.003 | inactive: -0.095 | inactive: 0.086 | inactive: 0.046
17 | SLC29A1 isoform 2 (UniProt Q99808) | inactive: 0.035 | inactive: 0.011 | inactive: -0.051 | inactive: 0.033 | inactive: 0.012 | inactive: -0.026 | inactive: -0.034 | inactive: -0.053 | inactive: 0.037 | inactive: 0.092
18 | SLC38A10 (UniProt Q9HBR0) | inactive: 0.007 | inactive: -0.128 | inactive: -0.006 | inactive: -0.065 | inactive: -0.009 | inactive: 0.02 | inactive: -0.127 | inactive: 0 | inactive: 0.016 | inactive: 0.047
19 | SLC6A9 isoform 2 (UniProt P48067) | inactive: -0.012 | inactive: -0.098 | inactive: 0.076 | inactive: 0.023 | inactive: -0.046 | inactive: 0.009 | inactive: -0.057 | inactive: -0.048 | inactive: -0.076 | inactive: 0.022
20 | SLC26A2 (UniProt P50443) | inactive: -0.06 | inactive: -0.007 | inactive: -0.138 | inactive: 0.04 | inactive: 0.089 | inactive: -0.164 | inactive: 0.039 | inactive: 0.019 | inactive: 0.15 | inactive: 0.09
21 | SLC27A2 (UniProt O14975) | inactive: -0.025 | active: 0.478 | inactive: -0.122 | inactive: 0.099 | inactive: 0.048 | inactive: 0.007 | inactive: -0.016 | inactive: -0.038 | inactive: -0.035 | active: 0.614
22 | SLC25A13 isoform 2 (UniProt Q9UJS0) | inactive: 0.009 | inactive: -0.009 | inactive: 0.027 | inactive: 0.032 | inactive: 0.03 | inactive: 0.013 | inactive: 0.015 | inactive: -0.004 | inactive: 0.009 | inactive: 0.005
23 | SMARCA2 (UniProt P51531) | inactive: -0.011 | inactive: -0.039 | inactive: -0.005 | inactive: 0.133 | inactive: -0.006 | inactive: 0.003 | inactive: -0.058 | inactive: 0 | inactive: 0.115 | inactive: -0.005
24 | SLC25A19 (UniProt Q9HC21) | inactive: 0.021 | inactive: -0.041 | inactive: -0.041 | inactive: -0.003 | inactive: -0.008 | inactive: -0.022 | inactive: -0.056 | inactive: -0.034 | inactive: -0.04 | inactive: 0.009
25 | SLC43A3 isoform 2 (UniProt Q8NBI5) | inactive: 0.015 | inactive: -0.014 | inactive: 0.003 | inactive: 0.057 | inactive: 0.012 | inactive: 0 | inactive: -0.012 | inactive: 0.015 | inactive: -0.063 | inactive: 0.014
26 | SLC30A9 (UniProt Q6PML9) | inactive: -0.023 | inactive: 0.039 | inactive: -0.17 | inactive: -0.079 | inactive: 0.017 | inactive: -0.012 | inactive: -0.023 | inactive: -0.056 | inactive: 0.1 | inactive: -0.005
27 | SLC25A42 (UniProt Q86VD7) | inactive: 0.047 | inactive: 0.008 | inactive: -0.059 | inactive: 0.028 | inactive: -0.042 | inactive: -0.025 | inactive: -0.029 | inactive: -0.012 | inactive: 0.005 | inactive: 0.004
28 | SLC2A4 (UniProt P14672) | inactive: -0.077 | inactive: 0.126 | inactive: 0.091 | inactive: 0.039 | inactive: 0.064 | inactive: -0.117 | inactive: -0.33 | inactive: 0.069 | inactive: -0.03 | inactive: 0.045
29 | SLC35A4 (UniProt L0R6Q1) | inactive: -0.026 | inactive: 0.043 | inactive: -0.064 | inactive: 0.014 | inactive: 0 | inactive: -0.007 | inactive: -0.058 | inactive: -0.023 | inactive: 0.05 | inactive: 0.013

Records 22 through 23, reprinted for reference:
Row | Target | log2 fold change (erlotinib) | log2 fold change [1] | log2 fold change [2] | log2 fold change [3] | log2 fold change [4] | log2 fold change [5] | log2 fold change [6] | log2 fold change [7] | log2 fold change [8] | log2 fold change (IRAK-1-4 Inhibitor I)
22 | SLC25A13 isoform 2 (UniProt Q9UJS0) | inactive: 0.009 | inactive: -0.009 | inactive: 0.027 | inactive: 0.032 | inactive: 0.03 | inactive: 0.013 | inactive: 0.015 | inactive: -0.004 | inactive: 0.009 | inactive: 0.005
23 | SMARCA2 (UniProt P51531) | inactive: -0.011 | inactive: -0.039 | inactive: -0.005 | inactive: 0.133 | inactive: -0.006 | inactive: 0.003 | inactive: -0.058 | inactive: 0 | inactive: 0.115 | inactive: -0.005
